Library compounds against nucleic acid targets

Targets, with sequences 5′ to 3′:
TPP: TPP riboswitch RNA three-way junction, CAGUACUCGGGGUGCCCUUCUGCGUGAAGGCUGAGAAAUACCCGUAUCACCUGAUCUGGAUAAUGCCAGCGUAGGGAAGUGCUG. About 24,000 compounds screened, about 160 hits.
PreQ1: PreQ1 riboswitch RNA pseudoknot, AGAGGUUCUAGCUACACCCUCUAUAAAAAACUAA. From B. subtilis. About 24,000 compounds screened, about 170 hits.
SAM-II: SAM-II riboswitch RNA pseudoknot, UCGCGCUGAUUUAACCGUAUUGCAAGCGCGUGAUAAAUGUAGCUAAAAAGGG. About 21,000 compounds screened, about 200 hits.

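Each compound is printed as two spots on a slide made to bind it covalently, so it has no test concentration; the read-out is fluorescence of the bound, labelled oligonucleotide. For the PreQ1, TPP and SAM-II riboswitches the laboratory earlier reported (doi:10.1038/s41467-019-09493-3) 1 µM RNA, 2 h, and a rule that included a mean Z-score above 3 (spot signal-to-noise against the whole library), a score well above that on a control array, and duplicate spots agreeing (coefficient of variation under 100). The data file gives only the calls; its cut-offs may differ, and compounds hitting several targets are kept. The calls come from the array alone, and fixing a compound to the slide can hide its binding.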 Key: hit = hit, no hit = tested without a hit. Compounds were drawn at random from those tested, without regard to their results. A target missing from an entry has no call listed here.

- COc1ccc(OC)c(C2CCN(C(=O)C3(N)CC3)C2)c1 (stereo not shown) : TPP: no hit; PreQ1: no hit; SAM-II: no hit
- CC(C)c1ccc(NCc2nc(-c3ccccc3)no2)cc1 : TPP: no hit; PreQ1: no hit; SAM-II: no hit
- CCC(CO)NCc1ccc2c(c1)n(C)c(=O)n2C (stereo not shown) : TPP: no hit; PreQ1: no hit
- CC(C)c1ccc(CNc2ncc(-c3ccccc3)n2C)cc1 : TPP: no hit; PreQ1: no hit; SAM-II: no hit
- CN(C)Cc1cccc(C(=O)N2CCNCC(C(=O)O)C2)c1 (stereo not shown) : TPP: no hit; PreQ1: no hit; SAM-II: no hit
- Cc1nc(C2=C(N)N(CCc3ccccc3)CC2=O)sc1C : TPP: no hit; PreQ1: no hit
- CC(Nc1nc(N2CCN(CCO)CC2)nc2ccccc12)c1ccccc1 (stereo not shown) : TPP: no hit; PreQ1: no hit; SAM-II: no hit
- CCOCCn1c(=O)[nH]c2cc(C(=O)NCc3n[nH]c(N)n3)ccc21 : TPP: no hit; PreQ1: no hit; SAM-II: no hit
- COc1ccc(C2c3c(-c4ccccc4O)n[nH]c3C(=O)N2CCO)cc1OC (stereo not shown) : TPP: no hit; PreQ1: no hit
- O=C1CC(NCCN2CCOCC2)C(=O)N1Cc1ccc(N2CCCC2=O)cc1 (stereo not shown) : TPP: no hit; PreQ1: no hit; SAM-II: no hit
- NC(=O)Cc1cccc(C(=O)c2ccccc2)c1N : TPP: no hit; PreQ1: no hit; SAM-II: no hit
- CCOC(=O)c1ccccc1NC1c2ccccc2C(=O)N1c1cccnc1 (stereo not shown) : TPP: no hit; PreQ1: no hit; SAM-II: no hit
- Cc1ccccc1N1CCCN(C(=O)[C@H]2[C@@H]3CNC[C@@H]32)CC1 : TPP: no hit; PreQ1: no hit; SAM-II: no hit
- CCOCCSc1nc(N)c2c3c(sc2n1)COC(C)(C)C3 : TPP: no hit; PreQ1: no hit; SAM-II: no hit
- CC1=C(C(=O)OC(C)C)C(c2ccco2)C(C#N)=C(N)O1 (stereo not shown) : TPP: no hit; PreQ1: no hit; SAM-II: no hit
- COC1=CC(C)C2CC3OC(O)CC4C(C)=C(OC)C(=O)C(C2(C)C1=O)C34C (stereo not shown) : TPP: no hit; PreQ1: no hit; SAM-II: no hit
- O=C(N[C@H]1CN[C@H](C(=O)NCCc2c[nH]c3ccccc23)C1)c1cccc(F)c1 : TPP: no hit; PreQ1: no hit; SAM-II: no hit
- COc1ccc2nc(S(=O)Cc3ncc(C)c(OC)c3C)[nH]c2c1 (stereo not shown) : TPP: no hit; PreQ1: no hit; SAM-II: no hit
- O=C1NCCc2c1[nH]c1ccccc21 : TPP: no hit; PreQ1: no hit; SAM-II: no hit
- OC(c1ccccc1)C(CN1CCCCC1)CN1CCCCC1 (stereo not shown) : TPP: no hit; PreQ1: no hit; SAM-II: no hit
- CN1CC(=O)N2[C@H](c3ccc4c(c3)OCO4)c3[nH]c4ccccc4c3C[C@@H]2C1=O : TPP: no hit; PreQ1: no hit; SAM-II: no hit
- COC(=O)c1ccc(Nc2cc(C)nc3ccccc23)cc1 : TPP: no hit; PreQ1: no hit; SAM-II: no hit
- C=CCc1c(C)nc(N)nc1NCC(c1ccc(F)cc1)N1CCCC1 (stereo not shown) : TPP: no hit; PreQ1: no hit; SAM-II: no hit
- CC(O)c1ccc(NC(=O)c2cnn3c2N[C@@H](c2cccs2)C[C@H]3C(F)(F)F)cc1 (stereo partly shown) : TPP: no hit; PreQ1: no hit; SAM-II: no hit

Once more, the final 2:

| SMILES | TPP | PreQ1 | SAM-II |
|---|---|---|---|
| `C=CCc1c(C)nc(N)nc1NCC(c1ccc(F)cc1)N1CCCC1` (stereo not shown) | no hit | no hit | no hit |
| `CC(O)c1ccc(NC(=O)c2cnn3c2N[C@@H](c2cccs2)C[C@H]3C(F)(F)F)cc1` (stereo partly shown) | no hit | no hit | no hit |

Data from the ROBIN nucleic acid binder screens, doi:10.1002/anie.202211358.